The results in this text go back to article PMC6098049.

Construct, isoform or probe ends are uncertain for at least one entry.

Data set [1] concerns bZIP73Jap + bZIP71. The experiment in a line: EMSA. Conditions: bZIP71 promotes the bZIP73Jap interaction; Chemiluminescent EMSA Kit (Beyotime), standard protocol; pH and temperature not stated; recombinant protein; protein details: GST (pGEX4T-3),GST (pGEX4T-3).
The test system of data set [2] is bZIP73Jap (Oryza sativa subsp. japonica cv. Nipponbare). As to the kind of experiment: EMSA. Conditions: Chemiluminescent EMSA Kit (Beyotime), standard protocol; pH and temperature not stated; recombinant protein; protein details: GST (pGEX4T-3). Background: A gel shift assay detects complexes by their altered migration in electrophoresis.

Regarding “TCCGGCGAATCCACCACGTGGTCTCCTCTCCCAACTTCACCTCCTCCTCTTCCCCCCTCCTCCCTCTCCT (double strand) [OsNCED5 G-box probe]”, the binding result in data set [1] and in data set [2] was “binds” each time.

With “CGCGTCGCCCTGCCTCCCCCCGGAGCGCACCACGTGGGCACCCAACCCCCTCTCCCAGCCCAAAGCAAAT (double strand) [OsNCED3 G-box probe]”, the binding result in data set [1] and in data set [2] was “binds” in each case.
